Results are given as percent effect. How 0% and 100% were set is not recorded. Most values in the screen are low, and negative values occur. Compounds were drawn at random from those tested, without regard to their results. Two or more numbers in one place are separate tests of the same structure; such repeats can differ widely. A dash means the value is not listed here; it may have been measured.

Protein sequences, listed by entry. Tags and fused reporters are not part of them. Residues count along the entry.
UniProt P9WPC5, whole entry: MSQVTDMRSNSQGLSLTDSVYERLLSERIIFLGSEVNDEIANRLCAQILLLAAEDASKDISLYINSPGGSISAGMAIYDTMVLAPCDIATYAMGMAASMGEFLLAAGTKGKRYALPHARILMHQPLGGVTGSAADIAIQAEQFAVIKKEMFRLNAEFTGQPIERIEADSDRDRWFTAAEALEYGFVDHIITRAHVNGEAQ
UniProt P9WPC3, whole entry partner: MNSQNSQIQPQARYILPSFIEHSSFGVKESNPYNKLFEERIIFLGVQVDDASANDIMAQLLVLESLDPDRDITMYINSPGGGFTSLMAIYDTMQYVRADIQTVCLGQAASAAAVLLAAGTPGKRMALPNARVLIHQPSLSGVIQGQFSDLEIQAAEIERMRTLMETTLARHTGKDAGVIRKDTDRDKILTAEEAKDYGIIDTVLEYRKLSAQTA
UniProt Q4DA54, 1-478: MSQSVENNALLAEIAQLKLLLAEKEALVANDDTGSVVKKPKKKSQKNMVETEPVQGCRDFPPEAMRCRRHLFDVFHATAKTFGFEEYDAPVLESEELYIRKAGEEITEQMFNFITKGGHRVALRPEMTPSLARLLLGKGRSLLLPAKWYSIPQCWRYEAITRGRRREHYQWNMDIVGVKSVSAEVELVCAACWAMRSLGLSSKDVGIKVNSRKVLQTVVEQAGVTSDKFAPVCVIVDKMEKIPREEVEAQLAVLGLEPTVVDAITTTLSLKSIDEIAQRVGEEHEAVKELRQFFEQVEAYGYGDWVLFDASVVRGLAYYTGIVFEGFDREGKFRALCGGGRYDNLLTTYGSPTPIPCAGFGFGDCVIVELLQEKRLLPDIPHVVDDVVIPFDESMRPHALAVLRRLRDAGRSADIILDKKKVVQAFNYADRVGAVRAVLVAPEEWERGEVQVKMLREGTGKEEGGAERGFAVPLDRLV
UniProt Q8IDJ8, 1-583: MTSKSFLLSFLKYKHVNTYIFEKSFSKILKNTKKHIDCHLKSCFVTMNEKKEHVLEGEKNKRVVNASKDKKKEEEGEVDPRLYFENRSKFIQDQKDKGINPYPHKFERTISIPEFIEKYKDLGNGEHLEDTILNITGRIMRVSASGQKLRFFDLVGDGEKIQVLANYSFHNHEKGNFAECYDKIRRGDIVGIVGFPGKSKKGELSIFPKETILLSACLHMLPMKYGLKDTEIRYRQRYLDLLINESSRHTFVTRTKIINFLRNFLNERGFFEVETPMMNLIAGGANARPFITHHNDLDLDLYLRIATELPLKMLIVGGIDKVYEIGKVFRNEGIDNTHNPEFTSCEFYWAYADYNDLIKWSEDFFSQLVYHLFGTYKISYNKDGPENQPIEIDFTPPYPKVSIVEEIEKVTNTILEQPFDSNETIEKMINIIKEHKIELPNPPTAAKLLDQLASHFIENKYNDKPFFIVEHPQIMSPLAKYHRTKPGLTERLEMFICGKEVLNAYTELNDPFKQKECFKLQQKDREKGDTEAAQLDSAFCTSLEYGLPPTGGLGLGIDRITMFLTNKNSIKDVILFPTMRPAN
UniProt P9WNZ1, whole entry: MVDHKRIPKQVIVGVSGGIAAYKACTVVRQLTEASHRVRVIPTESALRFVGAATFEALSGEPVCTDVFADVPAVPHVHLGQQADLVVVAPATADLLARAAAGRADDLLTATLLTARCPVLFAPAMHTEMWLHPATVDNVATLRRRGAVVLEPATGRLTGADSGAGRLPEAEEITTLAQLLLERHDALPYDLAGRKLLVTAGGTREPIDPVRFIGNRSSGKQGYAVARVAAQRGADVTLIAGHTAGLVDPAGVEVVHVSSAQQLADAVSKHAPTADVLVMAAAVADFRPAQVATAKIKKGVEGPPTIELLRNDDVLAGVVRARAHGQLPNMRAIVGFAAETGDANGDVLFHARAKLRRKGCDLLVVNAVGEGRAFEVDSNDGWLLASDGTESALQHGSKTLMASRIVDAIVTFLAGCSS
UniProt I6X8D2, whole entry: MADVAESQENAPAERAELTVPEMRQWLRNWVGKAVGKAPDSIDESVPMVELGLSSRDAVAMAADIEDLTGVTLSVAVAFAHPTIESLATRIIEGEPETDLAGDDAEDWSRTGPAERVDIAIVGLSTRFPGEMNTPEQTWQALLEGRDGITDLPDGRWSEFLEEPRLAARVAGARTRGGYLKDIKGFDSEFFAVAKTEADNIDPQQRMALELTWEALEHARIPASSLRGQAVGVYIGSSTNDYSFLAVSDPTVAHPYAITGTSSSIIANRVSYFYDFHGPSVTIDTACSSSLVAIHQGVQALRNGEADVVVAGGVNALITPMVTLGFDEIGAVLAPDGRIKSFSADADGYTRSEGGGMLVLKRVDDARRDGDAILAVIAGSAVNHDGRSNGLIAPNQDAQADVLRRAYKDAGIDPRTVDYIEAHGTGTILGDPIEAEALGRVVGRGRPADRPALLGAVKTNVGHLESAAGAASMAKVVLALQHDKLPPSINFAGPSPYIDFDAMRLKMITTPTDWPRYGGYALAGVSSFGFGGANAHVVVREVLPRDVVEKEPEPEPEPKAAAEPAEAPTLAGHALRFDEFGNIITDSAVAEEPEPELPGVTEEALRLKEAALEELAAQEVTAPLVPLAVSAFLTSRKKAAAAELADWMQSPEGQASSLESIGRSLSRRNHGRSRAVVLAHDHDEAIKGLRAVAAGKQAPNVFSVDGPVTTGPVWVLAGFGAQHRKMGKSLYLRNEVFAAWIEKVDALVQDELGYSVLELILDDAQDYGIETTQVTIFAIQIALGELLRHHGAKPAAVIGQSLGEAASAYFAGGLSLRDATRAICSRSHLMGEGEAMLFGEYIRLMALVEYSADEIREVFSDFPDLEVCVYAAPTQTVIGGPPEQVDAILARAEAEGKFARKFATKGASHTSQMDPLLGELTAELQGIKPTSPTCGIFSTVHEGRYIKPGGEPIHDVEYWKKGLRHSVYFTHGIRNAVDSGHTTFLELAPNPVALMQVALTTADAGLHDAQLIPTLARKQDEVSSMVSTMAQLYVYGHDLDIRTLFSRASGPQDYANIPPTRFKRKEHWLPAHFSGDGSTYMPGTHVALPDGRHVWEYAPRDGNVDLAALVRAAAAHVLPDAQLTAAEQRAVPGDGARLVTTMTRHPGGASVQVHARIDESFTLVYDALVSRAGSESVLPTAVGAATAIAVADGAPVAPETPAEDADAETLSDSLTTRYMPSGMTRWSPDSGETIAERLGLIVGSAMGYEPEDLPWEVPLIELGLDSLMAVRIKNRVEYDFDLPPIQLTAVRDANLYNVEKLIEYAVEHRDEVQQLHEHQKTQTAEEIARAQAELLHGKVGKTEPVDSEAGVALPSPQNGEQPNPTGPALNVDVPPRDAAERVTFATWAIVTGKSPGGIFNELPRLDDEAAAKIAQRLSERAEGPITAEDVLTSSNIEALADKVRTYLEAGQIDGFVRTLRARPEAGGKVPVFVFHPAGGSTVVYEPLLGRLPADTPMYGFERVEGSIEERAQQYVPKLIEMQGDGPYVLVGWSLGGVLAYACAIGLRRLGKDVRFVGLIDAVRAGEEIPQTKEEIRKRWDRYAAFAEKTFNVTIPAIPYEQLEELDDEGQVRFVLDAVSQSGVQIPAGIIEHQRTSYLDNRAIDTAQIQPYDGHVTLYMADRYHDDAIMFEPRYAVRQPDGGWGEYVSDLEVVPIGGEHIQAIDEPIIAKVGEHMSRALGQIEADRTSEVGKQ

ClpP1P2: 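ClpP1P2, Mycobacterium tuberculosis (UniProt P9WPC5 and UniProt P9WPC3). Protease assay of ClpP1P2, read by the AMC dye that it sets free. Concentration: 50 µM. Direction is inferred from only a few compounds that gave an IC50; most scored high, so higher reads as stronger inhibition. Most other retested compounds had strongly negative values. About 69,000 compounds were tested under these conditions; 0.015% (about 10) showed 50% or more at least once.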
TcHisRS: 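Enzyme assay of histidyl-tRNA synthetase; the read-out is not stated. Target: Histidine-tRNA ligase, Trypanosoma cruzi CL Brener (UniProt Q4DA54). Compounds at 30 µM. The record gives no direction; compounds that gave an IC50 in retests scored well above the rest, so higher reads as stronger inhibition. Of about 69,000 compounds tested this way, about 31 (0.045%) reached 50% or more in at least one test.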
PfKRS1: 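Enzyme assay of the cytosolic lysyl-tRNA synthetase in 384-well plates, read by luminescence. Target: Lysine-tRNA ligase, Plasmodium falciparum 3D7 (UniProt Q8IDJ8). Tested at 30 µM. Direction is inferred from only a few compounds that gave an IC50; most scored high, so higher reads as stronger inhibition. Of about 69,000 compounds tested this way, about 49 (0.071%) reached 50% or more in at least one test.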
CoaBC: 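Enzyme assay of CoaBC with a phosphate dye (Biomol Green) read at 650 nm. Target: Coenzyme A biosynthesis protein CoaBC, Mycobacterium tuberculosis (UniProt P9WNZ1). Compounds at 30 µM. Direction is inferred from only a few compounds that gave an IC50; most scored high, so higher reads as stronger inhibition. Most strong results did not repeat in a second test. Of about 67,000 compounds tested this way, about 40 (0.06%) reached 50% or more in at least one test.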
Leishmania in macrophages: 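Cell assay of Leishmania donovani living inside macrophages; the read-out is not stated. Tested at 30 µM. Higher reads as stronger inhibition (inferred: compounds with an IC50 in retests scored well above the rest). About 69,000 compounds were tested under these conditions; 1.5% (about 1,000) showed 50% or more at least once.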
Pks13 thioesterase: 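Enzyme assay of the thioesterase domain of polyketide synthase 13; the read-out is not stated. Target: Polyketide synthase Pks13, Mycobacterium tuberculosis (UniProt I6X8D2). Tested at 30 µM. The record gives no direction; the compounds picked for IC50 retests had high values, so higher reads as stronger inhibition. Size under these conditions: about 67,000 compounds, about 300 of them at 50% or above in at least one test.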

| # | Compound | ClpP1P2 | TcHisRS | PfKRS1 | CoaBC | Leishmania in macrophages | Pks13 thioesterase |
|---|---|---|---|---|---|---|---|
| 1 | `CC(=O)NCC1CCC2(CCN(c3ncc(C)cn3)CC2)O1` (centres unmarked) | -13.85 | 5.263 | 3.671 | -0.8631 | 32.29 | 21.81 |
| 2 | `CCc1ncnc2c1CCN(C(=O)c1ccncc1F)CC2` | -4.128 | 1.97 | -3.112 | 4.061 | - | - |
| 3 | `Cc1nc2sccn2c1CN(CCCN(C)C)Cc1ccccn1.O=C(O)CC(O)(CC(=O)O)C(=O)O` | - | - | - | - | -25.59 | - |
| 4 | `FC1(F)CCN(Cc2ccncc2)CC12CCN(c1cccnc1)C2.O=C(O)C(F)(F)F.O=C(O)C(F)(F)F.O=C(O)C(F)(F)F` (centres unmarked) | - | - | - | - | 38.61 | - |
| 5 | `O=C(CS(=O)(=O)C1CCCC1)NC(c1ccc(F)cc1)C1CC1` (centres unmarked) | -5.989 | 5.025 | 2.054 | 11.15 | 19.91 | -7.74 |
| 6 | `Cc1ccc(CNC(=O)NCc2cccnc2N(C)C)s1` | -2.79 | -0.7634 | 3.003 | 1.205 | -11.73 | -8.16 |
| 7 | `CCC(Nc1cccc(OC)c1)C(=O)NCc1ccc2c(c1)OCO2` (centres unmarked) | -6.735 | 1.288 | 5.486 | -9.45 | 27.79 | 6.233 |
| 8 | `CCn1ccnc1CN(C)Cc1nc(Cc2ccccc2F)no1` | -2.003 | 8.374 | 0.8833 | -3.226 | 0.9976 | -15.15 |
| 9 | `CN(C)C(=O)N1CCC2(CC1)NC(=O)c1ccccc12.Cl` | - | - | - | - | 24.92 | - |
| 10 | `O=C(O)C(F)(F)F.O=S(=O)(NCC1OCCc2cn(CC3CCOCC3)nc21)C1CC1` (centres unmarked) | - | - | - | - | -24.51 | - |
| 11 | `CCN(Cc1ccccc1)c1ncnc2c(C)nn(CC)c12` | 2.543 | 8.911 | 5.894 | -0.2427 | 34.72 | 6.667 |
| 12 | `O=C(c1ccc(SC(F)(F)F)cc1)N1CCOCC1c1ncon1` (centres unmarked) | -11.99 | 2.105 | 3.201 | -0.7968 | 18.24 | -13.97 |
| 13 | `COc1ccc(F)c(CN2CCC(c3cc(O)nc(C)n3)C2)c1` (centres unmarked) | -4.206 | 0.5405 | 0.4134 | 5.556 | - | -21.97 |
| 14 | `CCC1CCCN(Cc2nc3ccccc3c(=O)[nH]2)C1` (centres unmarked) | 3.377 | 12.65 | 7.597 | 3.049 | 20.17 | -8.643 |
| 15 | `CCc1cc(=O)n(CC(=O)N2CCC(C)CC2)c(-c2cccc(F)c2)n1` | -18.26 | 6.696 | 4.696 | 4.082 | 0.7703 | -17.2 |
| 16 | `Cn1cccc1C(=O)N[C@@H]1CN(Cc2cccs2)[C@@H]2COC[C@@H]21` | -26.42 | 5.882 | 3.771 | -2.28 | - | 0.7131 |
| 17 | `NCC(=O)N1CCC(c2ccnc(Nc3cc(C(F)(F)F)ccn3)n2)C1` (centres unmarked) | 29.89 | -4.887 | -0.2288 | 5.594 | - | -15.09 |
| 18 | `COC(=O)[C@H](CCSC)NC(=O)Cn1ccc2c(Cl)cccc21` | -11.51 | 2.924 | 3.103 | 0.2525 | 11.96 | -18.57 |
| 19 | `CS(=O)(=O)c1snnc1C1CCN(Cc2ccc3nccnc3c2)CC1` | 5.901 | 4.444 | 1.104 | -1.211 | -4.97 and 28.9 | 7.462 |
| 20 | `Cc1cnn(CC2CCCN2Cc2nnc(-c3ccccc3)o2)c1` (centres unmarked) | -15.23 | 4.07 | 1.709 | 11.86 and 52.63 | 16.1 | -6.857 |
| 21 | `Cc1cccc(-c2noc(CN3CC(n4cc(C)cn4)C3)n2)c1` | -3.423 | 3.053 | 1.472 | 2.169 | 32.75 | 17.6 |
| 22 | `O=C(CN1CCCCC1)N1CCC(c2cc(=O)n3c(n2)CCCCC3)C1` (centres unmarked) | 17.48 | 4.478 | 1.421 | -3.893 | - | -0.4871 |
| 23 | `O=C(c1c[nH]cn1)N1CCC(n2cc(-c3ccsc3)nn2)CC1` | -17.99 | 10.34 | -6.884 | 6.519 | 14.25 | -27.11 |
| 24 | `CC(=O)Nc1nc(CN2CCCCC2Cn2cncn2)cs1` (centres unmarked) | -1.982 | 1.724 | -0.5726 | 3.226 | -6.772 | -15.41 |
| 25 | `N#Cc1ccccc1N1CC2(CCCCN2CC2CC2)CC1=O.O=C(O)C(F)(F)F` (centres unmarked) | - | - | - | - | 10.76 | - |
| 26 | `CCc1cnc(C)nc1NCCc1nc(N)cc(O)n1` | 1.396 | -2.128 | 2.203 | 4.121 | 16.55 | -26.97 |
| 27 | `Cc1cn2c(n1)CCC(NC(=O)c1cc(Br)cn1C)C2` (centres unmarked) | -4.73 | 1.887 | 2.883 | 3.781 | 2.171 | -8.644 |
| 28 | `O=C(O)C(F)(F)F.O=C(c1ccoc1)N1CCO[C@]2(CCC[C@H]2COCc2cccnc2)C1` | - | - | - | - | 8.689 | - |
| 29 | `COc1ccc(S(=O)(=O)N2CCc3ccc(Cl)cc32)cc1C(=O)O` | -21.64 | -6.215 | 1.509 | -4.961 | 12.05 | -7.88 |
| 30 | `CN(C)C(=O)COCc1nnc2n1CCN(Cc1ccsc1)C2` | -3.828 | 8.046 | 0.4457 | 1.434 | - | 6.438 |
| 31 | `Cc1ccsc1CN(C)Cc1nc2c(cnn2C)c(=O)[nH]1` | 17.41 | -5.344 | 3.962 | 4.404 | 22.73 | -5.903 |
| 32 | `Fc1cccnc1N1CCCC(c2nccs2)C1` (centres unmarked) | 10.16 | -2.97 | 0.5286 | -5.206 | 14.11 | -4.073 |
| 33 | `CS(=O)(=O)NC1CCN(Cc2coc(-c3ccccc3)n2)CC1` | 4.305 | 16.36 | -1.245 | 4.38 | 16.28 | -2.433 |
| 34 | `c1cc(CN2CCC(c3ccc4c(c3)OCO4)CC2)ccn1` | -16.44 | -1.515 | -0.4126 | -1.051 | - | 8.56 |
| 35 | `Cl.NC1CCc2nc(-c3ccncc3)nc(Nc3cccc(F)c3)c2C1` (centres unmarked) | - | - | - | - | 64.39 | - |
| 36 | `COCCN(Cc1ccc(C)o1)C(=O)Nc1ncc(C)s1` | -0.705 | 1.176 | 0.8652 | -1.72 | 30.66 | 14.9 |
| 37 | `O=C(O)C(F)(F)F.[H][C@@]12COC[C@]1([H])[C@H](NC(=O)c1cscn1)CN2c1ncc(CC)cn1` | - | - | - | - | -4.763 | - |
| 38 | `CC(C)Oc1ccccc1C(=O)NCCc1nncn1C` | 4.589 | 1.01 | 3.311 | 5.835 | -2.7 | -36.76 |
| 39 | `c1ncc2c(n1)CN(CC1CCCCO1)CC2` (centres unmarked) | -10.32 | 18.37 | 84.56 | 9.719 | -0.8248 | 14.68 |
| 40 | `CC(O)c1cn(Cc2ccc(F)cc2)nn1` (centres unmarked) | -10.37 | 11.46 | -0.2131 | 4.833 | 22.17 | -17.01 |
| 41 | `O=C1C(NCc2nnc3n2CCCC3)CCN1c1ccccc1Cl` (centres unmarked) | -16.47 | 1.765 | 1.414 | -0.5115 | 15.33 | -31.21 |
| 42 | `COc1ccc(CCN)cc1-c1ccc(S(C)(=O)=O)cc1` | 13.33 | 9.392 | 1.931 | -45.77 | -6.393 | -18.95 |
| 43 | `N#Cc1cccc(N2CCC3(CC2)Nc2ccccc2NC3=O)n1` | -10.18 | 6.329 | 5.06 | 1.683 | 10.49 | -22.83 |
| 44 | `Cc1cc(CN(C)C(=O)NC2CCC(O)CC2)no1` (centres unmarked) | -5.6 | -3.361 | -4.918 | 0.216 | -0.9174 | -5.19 |
| 45 | `CC(=O)N1CCCCC[C@@H]2[C@@H]1[C@H](c1cccc(F)c1)CN2C(C)=O` | 13.49 | 8.333 | -0.4126 | 1.051 | - | 1.367 |
| 46 | `Cn1nnc2c1CCN(C(=O)CC1CC1)C2COCCN1CCCC1` (centres unmarked) | 6.982 | -1.961 | -4.142 | 2.28 | -21.29 | -9.749 |
| 47 | `CCCS(=O)(=O)N1CCN(Cc2ccco2)CC1.O=C(O)C(=O)O` | - | - | - | - | 24.09 | - |
| 48 | `[H][C@]12CN(CC3CC3)C(=O)[C@@]1([H])CN(S(=O)(=O)C1CC1)C2` | - | - | - | - | 7.821 | - |
| 49 | `Cc1noc(C(C)C)c1C(=O)NCc1cccc(CN(C)C)c1` | -4.646 | 1.724 | -1.192 | 0.6452 | 3.844 | -6.203 |
| 50 | `CCc1csc(C2CCCN(C(=O)c3ccco3)C2)n1` (centres unmarked) | -6.872 | 0.5747 | -2.095 | 1.935 | -22.84 | -0.964 |
| 51 | `Cc1noc(C)c1C(=O)N1Cc2ncn(C)c2C(COCC(C)C)C1` (centres unmarked) | -18.74 | 0 | 3.26 | 1.98 | - | -14.97 |
| 52 | `COc1cc(-c2nccn2C(C)CCn2cccn2)cc2c1OCO2` (centres unmarked) | -3.465 | -0.5236 | -0.06711 | 3.909 | 30.8 | -6.848 |
| 53 | `[H][C@@]12CN(Cc3ccccc3)CC[C@]1([H])N(C(C)=O)C[C@H]2c1ccsc1` | - | - | - | - | 29.65 | - |
| 54 | `O=C(O)C(F)(F)F.[H][C@]12CCC[C@@]1(COc1ccccn1)CN(C(=O)N(C)C)C2` | - | - | - | - | -12.48 | - |
| 55 | `c1cnn(Cc2nnc3n2CCCN(c2nccs2)C3)c1` | 0.6076 | 5.882 | 1.595 | -0.8333 | 1.684 | 7.828 |
| 56 | `CCOC1CCCN(C(=O)c2[nH]nc(C)c2Br)C1` (centres unmarked) | -5.945 | 4.124 | -1.937 | 18.68 | -10.07 | -14.16 |
| 57 | `CCc1c(O)nc(SCC(=O)c2ccccc2)n(-c2ccccc2)c1=O` | 5.018 | 2.062 | 3.022 | -11.32 | -6.604 | 3.78 |
| 58 | `O=C(COCCOc1ccccc1)NC1CCN(c2ncccn2)CC1` | 18.04 | 8.808 | 2.408 | -6.771 | 21.86 | 44.43 |

Some entries from above, unchanged:

* NCC(=O)N1CCC(c2ccnc(Nc3cc(C(F)(F)F)ccn3)n2)C1 (centres unmarked) : ClpP1P2: 29.89%; TcHisRS: -4.887%; PfKRS1: -0.2288%; CoaBC: 5.594%; Pks13 thioesterase: -15.09%
* N#Cc1ccccc1N1CC2(CCCCN2CC2CC2)CC1=O.O=C(O)C(F)(F)F (centres unmarked) : Leishmania in macrophages: 10.76%
* CN(C)C(=O)COCc1nnc2n1CCN(Cc1ccsc1)C2 : ClpP1P2: -3.828%; TcHisRS: 8.046%; PfKRS1: 0.4457%; CoaBC: 1.434%; Pks13 thioesterase: 6.438%

The values are deposited in ChEMBL (CHEMBL3988442, “University of Dundee, Small-Polar-MMV Screening Library” (2021)).